# Laboratory results as given in PubChem BioAssay AID504467 (National Center for Advancing Translational Sciences (NCATS), 2011).
# Among all 330,000 compounds or so, about 7,700 (2.3%) were called active. Inconclusive means that the source gave no clear call. Such entries were picked first, then a sample of the others. Calls follow the shape of the dose curve; as a rule, active = well fitted inhibition curve with a large enough effect; inconclusive = small, poorly fitted or top-dose-only effect, or effect the other way; inactive = flat fitted curve, though single readings scatter. Potencies beside an inconclusive call are fits to weak or partial responses and may not hold up. More than one record can exist for a structure, and the calls need not agree.
# Assay: qHTS screen for small molecules that inhibit ELG1-dependent DNA repair in human embryonic kidney (HEK293T) cells expressing luciferase-tagged ELG1; also: nearly all actives have a fitted effect of over 55% in size
# Conditions: HEK293T ELG1-luciferase reporter, luminescence, 16 h, DNA damage induced by 5-fluorouridine; activity change, negative = inhibition: at 46.1 µM (top of the series)
# Outline: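 5-Fluorouridine DNA damage + compound/DMSO, 2,000 cells/well, 16 h, 37 °C/5% CO2. ONE-Glo, 30 min RT, luminescence. Readout = decrease in reporter signal.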
# % is scaled to controls: 0 for no effect and ±100 for the full control effect; potency is read from the fitted curve at half-maximal effect.
SMILES,"activity change, negative = inhibition",Potency
Cc1ccccc1-c1n[nH]c(=S)n1C,inactive: 5.07%,
O=C(Nc1ccccc1Br)C1CC(=O)N(c2ccc3c4c(cccc24)CC3)C1 (configuration not stated),,"inconclusive: 29.1 µM [inhibitor, single point]"
COC(=O)c1cc(S(=O)(=O)Nc2cccc(OC)c2)cn1C,,"inconclusive: 2.31 µM [activator, partial curve, poor fit]"
Cc1nn(C(C)C(=O)N2CCCCC2)c(=O)c2c1sc1ccccc12 (configuration not stated),inactive: 3.48%,
Nc1c(N(Cc2ccco2)C(=O)COc2ccccc2F)c(=O)[nH]c(=O)n1Cc1ccccc1,inactive: 16%,
Nc1nonc1C(=O)N/N=C/c1ccc(Br)o1,inactive: 11.9%,
Cc1occc1C(=O)NNC(=S)Nc1cccc([N+](=O)[O-])c1,inactive: 5.95%,
Cn1c(COc2ccc(Br)cc2)nnc1SC1CCc2ccccc2C1=O (configuration not stated),,"inconclusive: 20.6 µM [inhibitor, partial curve, poor fit]"
COc1cc(N(C)C)c([N+](=O)[O-])cc1C(=O)N1CCOCC1,inactive: 0.918%,
COCCCNC(NC(=O)c1ccc(C)cc1)C(Cl)(Cl)Cl (configuration not stated),,"inconclusive: 2.91 µM [inhibitor, full curve]"
CC(C)CC(=O)NNC(=O)c1ccc(Cl)cc1,,"inconclusive: 16.4 µM [inhibitor, single point]"
C=CCn1nnc2sc3c(c2c1=O)CCC(C)C3 (configuration not stated),,"inconclusive: 16.4 µM [activator, partial curve]"
CCOc1ccccc1NC(=O)C1CCCN(S(=O)(=O)c2cccc3nsnc23)C1 (configuration not stated),,"inconclusive: 29.1 µM [inhibitor, single point]"
Cc1cccc(/C=N/NC(=O)c2cccc([N+](=O)[O-])c2)n1,,"inconclusive: 29.1 µM [activator, single point]"
COC(=O)c1cc(Cn2nc(C(=O)O)c3ccccc3c2=O)oc1C,inactive: 12.1%,
C[C@H](NC(=O)c1ccc2c(c1)OCO2)c1nnc2ccccn12,,"inconclusive: 23.1 µM [activator, single point]"
Cc1cc(-c2nnc(CCC(=O)N(C)C(C)c3cccs3)o2)no1 (configuration not stated),inactive: 10.7%,
Cc1ccccc1NC(=O)c1ccc(OCC(=O)Nc2ccccc2F)cc1,inactive: -8.7%,
CN(CC(=O)Nc1ccccc1Cl)CC(=O)Nc1ccccc1[N+](=O)[O-],,"inconclusive: 23.1 µM [inhibitor, single point]"
CC(=O)N1CCN(c2ccc(NCc3ccccc3)cc2)CC1,inactive: 2.97%,
O=C1CC(c2ccccc2)n2nc(NC(=O)c3cccnc3)nc2N1 (configuration not stated),,"inconclusive: 23.1 µM [inhibitor, partial curve]"
COc1ccccc1C(=O)NCC(=O)Nc1ccccc1,inactive: 15.4%,
Cc1ccc(S(=O)(=O)N2CCN(C(=O)n3ccnc3)CC2)cc1,,"inconclusive: 14.6 µM [activator, partial curve]"
Nc1cc(-c2ccccc2)ccc1O,,active: 8.2 µM

# Eight entries out of the list, ordered by count of non-hydrogen atoms, low to high.
SMILES,"activity change, negative = inhibition",Potency
Nc1cc(-c2ccccc2)ccc1O,,active: 8.2 µM
C=CCn1nnc2sc3c(c2c1=O)CCC(C)C3 (configuration not stated),,"inconclusive: 16.4 µM [activator, partial curve]"
Cc1cccc(/C=N/NC(=O)c2cccc([N+](=O)[O-])c2)n1,,"inconclusive: 29.1 µM [activator, single point]"
CC(=O)N1CCN(c2ccc(NCc3ccccc3)cc2)CC1,inactive: 2.97%,
Cc1cc(-c2nnc(CCC(=O)N(C)C(C)c3cccs3)o2)no1 (configuration not stated),inactive: 10.7%,
O=C1CC(c2ccccc2)n2nc(NC(=O)c3cccnc3)nc2N1 (configuration not stated),,"inconclusive: 23.1 µM [inhibitor, partial curve]"
Cn1c(COc2ccc(Br)cc2)nnc1SC1CCc2ccccc2C1=O (configuration not stated),,"inconclusive: 20.6 µM [inhibitor, partial curve, poor fit]"
CCOc1ccccc1NC(=O)C1CCCN(S(=O)(=O)c2cccc3nsnc23)C1 (configuration not stated),,"inconclusive: 29.1 µM [inhibitor, single point]"

# Remaining list, next part:

SMILES,"activity change, negative = inhibition",Potency
Cc1nnc2ccc(-c3cccc(NC(=O)c4ccc(Br)o4)c3)nn12,,"inconclusive: 11.6 µM [activator, partial curve]"
COc1ccc(-c2c(C)nc3c(-c4ccc(F)cc4)cnn3c2N)cc1,,"inconclusive: 1.46 µM [activator, full curve]"
O=C(Nc1ccc(Br)cn1)c1cccc2c1-c1ccccc1C2=O,inactive: -17.3%,
CC(=O)Nc1ccc(NC(=O)C(C)OC(=O)CCC(=O)c2ccc(F)cc2)cc1 (configuration not stated),,"inconclusive: 18.4 µM [activator, single point]"
Oc1cccc(C=NCc2ccccc2)c1O,,"inconclusive: 23.1 µM [inhibitor, single point]"
CCOc1ccc(C(=O)CCC(=O)NCC(=O)Nc2c(C)cccc2C)cc1,,"inconclusive: 29.1 µM [inhibitor, single point]"
COc1ccccc1N1CCN(C(=O)CSc2nnc(C)n2C2CC2)CC1,inactive: 13.5%,
c1ccc(-n2c(-c3ccncc3)nnc2-c2cccs2)cc1,,"inconclusive: 29.1 µM [inhibitor, single point]"
CCN(CC)c1ccc(C(=O)OCC(=O)Nc2cccc(S(=O)(=O)NC3=NCCCCC3)c2)cc1,,"inconclusive: 16.4 µM [inhibitor, single point]"
O=C(Nc1cccc(S(=O)(=O)N2CCOCC2)c1)c1cc(=O)[nH]c2ccccc12,inactive: 0%,
Cc1cccc(N2CC(=O)N(c3cccc(C)c3)CC2=O)c1,inactive: 5.4%,
CCOc1cc(C2NC(=O)NC(c3ccccc3)=C2C(C)=O)ccc1OCC(N)=O (configuration not stated),,"inconclusive: 1.16 µM [activator, single point]"
O=[N+]([O-])c1ccc(/C=N/Nc2nc3ccccc3o2)cc1,,"inconclusive: 3.66 µM [activator, full curve]"
CC1=NNC(=O)C1CC(=O)N/N=C/C=C/c1ccccc1 (configuration not stated),inactive: 2.4%,
CCOc1ccc(NC(=O)C(C)Oc2ccc(C#N)cc2)cc1S(=O)(=O)N1CCCC1 (configuration not stated),,"inconclusive: 29.1 µM [inhibitor, single point]"
CC(C)CNS(=O)(=O)c1ccc(CCC(=O)NCCC2=CCCCC2)cc1,inactive: -16.7%,
Cn1c(N2CCN(C(c3ccccc3)c3ccccc3)CC2)nc2ccccc21,,"inconclusive: 11.2 µM [inhibitor, partial curve, poor fit]"
C/C(=N/NC(=O)c1ccoc1C)c1cccc(NC(=O)C(F)(F)F)c1,,"inconclusive: 20.6 µM [activator, partial curve]"
COc1cccc(NC(=S)N(CCc2c(C)[nH]c3ccc(C)cc23)Cc2cccs2)c1,,"inconclusive: 8.2 µM [inhibitor, partial curve, poor fit]"
CC(C)N(C(=O)COC(=O)c1ccccc1C(=O)c1ccc(Cl)c([N+](=O)[O-])c1)C(C)C,,"inconclusive: 29.1 µM [activator, single point]"
O=C(Nc1ccccc1F)c1ccc(Cn2cc(Cl)cn2)cc1,,"inconclusive: 16.4 µM [activator, partial curve, poor fit]"
O=[N+]([O-])c1ccc(C2Nc3cccc4cccc(c34)N2)cc1,,"inconclusive: 29.1 µM [inhibitor, single point]"
CSc1nccc(Oc2cccc(C#N)c2)n1,,"inconclusive: 14.6 µM [inhibitor, partial curve]"
